# Data reported in PubChem BioAssay AID445 (National Center for Advancing Translational Sciences (NCATS), 2006).
# This is one part of the list. Further columns of the screen follow, without active or inactive calls. Compounds called inactive in the main read-out are mostly missing here. Potencies come from curve fits of mixed quality, noted in brackets.
# Experiment: IkB Signaling
# Conditions: ABC-DLBCL IkBa-CBG/CBR dual luciferase ratio (green luciferase fused to IkBa over red control in OCI-Ly3 lymphoma cells), 4 h
# Method in brief: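 In this assay, an IκBα–CBG68 fusion accumulates when IKK-driven degradation is blocked; native CBR normalizes for cell number. OCI-Ly3 cells were treated 4 h with compound and doxycycline, then green and red light read after Chroma-Glo addition.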
# [1] = measured here: control luc red channel unless noted
# [2] = measured here: IkB-luc green channel
# [3] = measured here: control luc red channel
compound,measurement,setting,value
O=C(Nc1cccnc1)c1cc2c(ccc3ccccc32)o1,AC50,[1],"3.16 µM [falling, full curve]"
Cc1ccc2nc(C(O)C(O)c3nc4ccc(C)cc4[nH]3)[nH]c2c1 (stereo not given),AC50,[1],"10 µM [falling, partial curve]"
O=C(c1cnn(-c2ccc(F)cc2)c1-n1cccc1)N1CCN(c2ccccc2)CC1,AC50,[1],"20 µM [falling, partial curve]"
CCOc1ccc(-c2cn3nc(CC(C)C)sc3n2)cc1,AC50,[1],"5.01 µM [rising, partial curve]"
COc1ccc(CC(=O)NCC(c2cccs2)S(=O)(=O)c2ccc(F)cc2)cc1 (stereo not given),AC50,[1],"39.8 µM [falling, single point]"
Cc1ccc(CNC(=O)c2c(Nc3ccccc3C)sc(C(=O)c3ccc(F)cc3)c2N)cc1,AC50,[1],"31.6 µM [falling, single point]"
COc1cccc(-c2nn(C)c3sc(C(=O)NCc4ccc(OC)cc4OC)cc23)c1,AC50,[1],"3.98 µM [falling, full curve]"
CC(C)c1cc(-c2nc(-c3ccc(Cl)cc3)no2)n[nH]1,AC50,[1],"25.1 µM [falling, single point]"
O=C(CCn1c(=O)c2ccccc2n(CC(=O)Nc2ccc(F)cc2)c1=O)NCCc1ccccc1,AC50,[1],"12.6 µM [falling, partial curve]"
CCc1ccc(C2CC(=O)Nc3c2c(=O)nc2c(C)cccn32)cc1 (stereo not given),AC50,[1],"0.0631 µM [falling, full curve, poor fit]"
COc1ccccc1C(=O)Nc1ccc(C(=O)OCc2cc(=O)n3c4c(sc3n2)CCCC4)cc1,AC50,[1],"3.16 µM [falling, full curve]"
Cc1ccc(CNC(=O)c2c(Nc3c(C)cccc3C)sc(C(=O)c3ccccc3)c2N)cc1,AC50,[1],"39.8 µM [falling, single point]"
COc1ccccc1NC(=O)c1cnn(-c2ccccc2)c1-n1cccc1,AC50,[1],"6.31 µM [falling, partial curve]"
c1ccc(-c2cn3nc(-c4ccccc4)sc3n2)cc1,AC50,[2],"1.26 µM [rising, partial curve]"
same,AC50,[3],"0.158 µM [falling, full curve]"
CCOC(=O)c1ccccc1NC(=O)c1c(C)oc2ncnc(N3CCOCC3)c12,AC50,[1],"31.6 µM [falling, single point]"
Cc1ccccc1-c1ccc2ncnc(-n3ccnc3)c2c1,AC50,[1],"3.98 µM [rising, single point] [measured here: IkB-luc green channel]"
Cc1cccc(-n2c(SCC(=O)Nc3ccc(C)c(C)c3)nc3n[nH]c(C)c3c2=N)c1,AC50,[1],"20 µM [falling, single point]"
CCCCC(CC)CNC(=O)CCCCCn1c(=O)[nH]c2ccsc2c1=O (stereo not given),AC50,[1],"10 µM [falling, partial curve]"
CCc1ccc(-n2c(=O)c3ccccc3n(Cc3ccccc3C#N)c2=O)cc1,AC50,[1],"0.1 µM [rising, partial curve, poor fit]"
CC(C)c1ccc(NC(=O)c2ccc(=O)n(Cc3ccccc3)c2)cc1,AC50,[1],"20 µM [falling, single point]"
CCOc1ccc(-c2noc(CCC(=O)O)n2)cc1,AC50,[1],"0.398 µM [falling, full curve]"
O=C(CN1C2CCCC1CC(NC(=O)c1ccco1)C2)Nc1ccccc1C(F)(F)F (stereo not given),AC50,[1],"39.8 µM [falling, single point]"
C=CCn1c2ccccc2c2nnc(SCN3C(=O)c4ccccc4C3=O)nc21,AC50,[1],"10 µM [falling, partial curve]"
CCN(CC)c1ccc2c(c1)CCCN2,AC50,[1],"39.8 µM [rising, single point] [measured here: IkB-luc green channel]"
O=C(O)CCn1ccc2cc(S(=O)(=O)N3CCCCCC3)ccc21,AC50,[1],"39.8 µM [falling, single point]"
CC(=O)c1cccc(NC(=O)c2cc3ccccn3n2)c1,AC50,[1],"15.8 µM [falling, partial curve]"
O=C(c1noc2c1CCc1ccccc1-2)N1CCCc2ccccc21,AC50,[1],"15.8 µM [falling, partial curve]"
Cc1c(C(=O)OCCOC(C)C)[nH]c2c1C(=O)CC(c1ccco1)C2 (stereo not given),AC50,[2],"0.398 µM [rising, full curve]"
same,AC50,[3],"0.251 µM [rising, full curve]"
COc1cc(Nc2nc(-c3ccc(OC)c(OC)c3)nc3ccccc23)cc(OC)c1,AC50,[1],"12.6 µM [falling, partial curve]"
Cc1ccc(NC(=O)OCC(F)(F)C(F)F)cc1NC(=O)OCC(F)(F)C(F)F,AC50,[1],"20 µM [falling, partial curve]"
COc1ccccc1Nc1c2c(nc3ccc(NC(=O)c4ccc(N(C)C)cc4)cc13)CCCC2,AC50,[1],"15.8 µM [falling, partial curve]"
CC(C)[C@H](NC(=O)OC(C)(C)C)c1nnc(SCC(=O)Nc2ccc(Br)cc2)o1,AC50,[1],"12.6 µM [falling, partial curve]"
Cc1ccc(-n2c(=O)c3oc4ccccc4c3n(Cc3cccc(F)c3)c2=O)cc1C,AC50,[1],"12.6 µM [falling, single point]"
Cc1ccc(C(=O)c2c(N)c(C(=O)Nc3cccc(C(F)(F)F)c3)c3ccccn23)cc1,AC50,[1],"0.00398 µM [rising, full curve, poor fit]"
Cc1nc2nc(NCc3ccc(Br)cc3)[nH]n2c(=O)c1Cc1ccccc1,AC50,[1],"20 µM [falling, partial curve]"
COc1cccc(Cn2c(=O)n(CC3CCC(C(=O)N4CCOCC4)CC3)c(=O)c3sccc32)c1 (stereo not given),AC50,[1],"1.58 µM [rising, partial curve]"
Cc1oc2ncn(CC(C)C)c(=O)c2c1C(=O)NCCCN1CCCCC1C (stereo not given),AC50,[1],"3.98 µM [rising, partial curve, poor fit]"
CCOc1ccc(NC(=O)c2oc3ccccc3c2NC(=O)Cc2cccs2)cc1,AC50,[1],"3.16 µM [falling, partial curve]"
CCc1ccc2c(c1)c(=O)c(C(=O)c1ccccc1)cn2CC(=O)Nc1ccc(C)c(Cl)c1,AC50,[1],"31.6 µM [falling, partial curve]"
CCc1ccc2c(c1)c(=O)c(C(=O)c1ccc(C)cc1)cn2CC(=O)Nc1ccccc1C,AC50,[1],"20 µM [falling, partial curve]"
COc1ccc(-c2nnc(SCC(=O)NCCc3ccccc3)nc2-c2ccc(OC)cc2)cc1,AC50,[1],"25.1 µM [falling, single point]"
CC(NS(=O)(=O)c1ccccc1)C(=O)Nc1nccs1 (stereo not given),AC50,[1],"10 µM [falling, partial curve]"
COc1ccc(-c2c(C)nn3c(-c4ccccc4)cc(-c4ccccc4)nc23)cc1,AC50,[1],"12.6 µM [rising, partial curve]"
O=C(Cc1ccc(NC(=O)N2CCCCc3ccccc32)cc1)Nc1ccccc1Br,AC50,[1],"31.6 µM [falling, single point]"
CCSc1nnc(NC(=O)C2CCCCC2)s1,AC50,[1],"6.31 µM [falling, partial curve]"
CCCCN(CC)S(=O)(=O)c1ccc(C(=O)Nc2nnc(-c3cccs3)o2)cc1,AC50,[1],"6.31 µM [falling, partial curve]"
CCCCNc1cc(N2CCN(C3CCCCC3)CC2)c2noc3c2c1C(=O)c1ccccc1-3,AC50,[1],"10 µM [falling, partial curve]"
Cc1cc(=O)c2cc(Cl)ccc2[nH]1,AC50,[1],"39.8 µM [falling, single point]"
CCCCC(=O)N1CCN(c2nc3c(C)c(C)ccc3s2)CC1,AC50,[1],"3.16 µM [rising, single point]"
COc1cccc(C(=O)Nc2ccc(C(=O)OCc3cc(=O)n4cc(C)sc4n3)cc2)c1,AC50,[1],"39.8 µM [rising, single point]"
Cc1nc2c(C(=O)NCCc3ccccc3)c[nH]n2c(=O)c1Cc1ccccc1F,AC50,[1],"15.8 µM [falling, partial curve]"
CCOc1ccc2nc(NC(=O)Nc3cccs3)sc2c1,AC50,[2],"39.8 µM [falling, single point]"
same,AC50,[3],"20 µM [falling, single point]"
Cc1nc2ccc(S(=O)(=O)NCC(=O)Nc3ccc(C)c(Cl)c3)cc2s1,AC50,[1],"15.8 µM [falling, single point]"
Cc1cc(C)cc(NC(=O)CSc2nc3c(cnn3-c3ccc(F)cc3)c(=O)[nH]2)c1,AC50,[1],"0.01 µM [falling, full curve, poor fit]"
CCCCOC(=O)c1ccc(NC(=O)c2cc(=O)c3ccccc3o2)cc1,AC50,[1],"10 µM [falling, partial curve]"
O=C(O)CCCn1cc(NC(=O)COc2ccccc2F)cn1,AC50,[1],"0.398 µM [falling, full curve]"
O=C(Nc1ccc(OC(F)(F)F)cc1)C(NS(=O)(=O)c1cccc2nsnc12)c1ccccc1 (stereo not given),AC50,[1],"15.8 µM [falling, partial curve]"
O=C(CSc1ncc2c(n1)-c1cc(Cl)ccc1N(Cc1ccccc1)S2(=O)=O)NCc1ccccc1,AC50,[1],"7.94 µM [falling, full curve, poor fit]"
CCOc1ccc(NC(=O)c2ncn(-c3ccccc3)n2)cc1,AC50,[1],"7.94 µM [falling, partial curve]"
Cc1cc(C)c2nc(C(F)(F)F)nc(N3CCN(C(=O)c4ccco4)CC3)c2c1,AC50,[1],"3.16 µM [falling, full curve]"
Fc1ccc(Nc2c(-c3c[nH]c4ccccc34)nc3ccccn23)cc1,AC50,[1],"0.01 µM [falling, full curve]"
Cc1ccc(C(=O)Nc2nnc(S(=O)(=O)N3CCCc4ccccc43)s2)cc1,AC50,[1],"3.16 µM [rising, partial curve]"

# An excerpt of these results, tab-delimited.
compound	measurement	setting	value
O=C(Nc1cccnc1)c1cc2c(ccc3ccccc32)o1	AC50	[1]	3.16 µM [falling, full curve]
Cc1ccc2nc(C(O)C(O)c3nc4ccc(C)cc4[nH]3)[nH]c2c1 (stereo not given)	AC50	[1]	10 µM [falling, partial curve]
O=C(c1cnn(-c2ccc(F)cc2)c1-n1cccc1)N1CCN(c2ccccc2)CC1	AC50	[1]	20 µM [falling, partial curve]
CCOc1ccc(-c2cn3nc(CC(C)C)sc3n2)cc1	AC50	[1]	5.01 µM [rising, partial curve]
